In the supplement of paper PMC10849652:
This is one part of the list.

Amino acid sequences for entries named in this document (tags omitted). A change or cut given only in a name is not applied to a line headed by its entry.
UniProt Q12959, whole entry, looked up: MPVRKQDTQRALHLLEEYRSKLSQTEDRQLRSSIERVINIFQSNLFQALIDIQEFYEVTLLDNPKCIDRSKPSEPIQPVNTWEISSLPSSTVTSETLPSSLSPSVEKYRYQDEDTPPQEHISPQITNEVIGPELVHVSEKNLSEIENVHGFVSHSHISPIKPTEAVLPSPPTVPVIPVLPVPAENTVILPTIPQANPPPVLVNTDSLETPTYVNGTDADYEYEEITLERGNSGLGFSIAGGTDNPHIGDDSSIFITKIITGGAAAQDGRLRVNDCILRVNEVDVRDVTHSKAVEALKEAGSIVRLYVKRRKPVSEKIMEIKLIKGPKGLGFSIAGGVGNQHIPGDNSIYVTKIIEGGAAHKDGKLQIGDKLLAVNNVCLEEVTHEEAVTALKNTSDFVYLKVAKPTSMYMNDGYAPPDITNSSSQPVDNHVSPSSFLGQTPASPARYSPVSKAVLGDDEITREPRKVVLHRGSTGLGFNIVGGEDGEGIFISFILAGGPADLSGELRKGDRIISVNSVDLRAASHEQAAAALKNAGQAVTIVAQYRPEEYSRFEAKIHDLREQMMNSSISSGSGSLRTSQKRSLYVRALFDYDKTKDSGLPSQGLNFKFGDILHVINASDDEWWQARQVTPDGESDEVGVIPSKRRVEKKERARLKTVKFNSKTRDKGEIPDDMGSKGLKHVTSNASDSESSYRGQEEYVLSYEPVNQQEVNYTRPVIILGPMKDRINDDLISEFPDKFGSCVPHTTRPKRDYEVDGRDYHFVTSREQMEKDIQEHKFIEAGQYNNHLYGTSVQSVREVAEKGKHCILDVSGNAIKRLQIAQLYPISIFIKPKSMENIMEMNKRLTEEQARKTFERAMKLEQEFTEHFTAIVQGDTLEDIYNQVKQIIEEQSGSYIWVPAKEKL
UniProt Q9Y394: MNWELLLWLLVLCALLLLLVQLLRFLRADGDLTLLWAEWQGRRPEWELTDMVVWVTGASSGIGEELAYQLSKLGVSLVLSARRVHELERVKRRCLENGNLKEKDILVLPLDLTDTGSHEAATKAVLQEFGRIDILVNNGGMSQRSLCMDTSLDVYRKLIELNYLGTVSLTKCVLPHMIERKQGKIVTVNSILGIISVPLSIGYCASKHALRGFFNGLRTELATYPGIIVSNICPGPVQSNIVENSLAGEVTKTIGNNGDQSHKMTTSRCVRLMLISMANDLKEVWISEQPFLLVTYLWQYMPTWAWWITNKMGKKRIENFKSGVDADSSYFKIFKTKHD
UniProt Q8IYB7: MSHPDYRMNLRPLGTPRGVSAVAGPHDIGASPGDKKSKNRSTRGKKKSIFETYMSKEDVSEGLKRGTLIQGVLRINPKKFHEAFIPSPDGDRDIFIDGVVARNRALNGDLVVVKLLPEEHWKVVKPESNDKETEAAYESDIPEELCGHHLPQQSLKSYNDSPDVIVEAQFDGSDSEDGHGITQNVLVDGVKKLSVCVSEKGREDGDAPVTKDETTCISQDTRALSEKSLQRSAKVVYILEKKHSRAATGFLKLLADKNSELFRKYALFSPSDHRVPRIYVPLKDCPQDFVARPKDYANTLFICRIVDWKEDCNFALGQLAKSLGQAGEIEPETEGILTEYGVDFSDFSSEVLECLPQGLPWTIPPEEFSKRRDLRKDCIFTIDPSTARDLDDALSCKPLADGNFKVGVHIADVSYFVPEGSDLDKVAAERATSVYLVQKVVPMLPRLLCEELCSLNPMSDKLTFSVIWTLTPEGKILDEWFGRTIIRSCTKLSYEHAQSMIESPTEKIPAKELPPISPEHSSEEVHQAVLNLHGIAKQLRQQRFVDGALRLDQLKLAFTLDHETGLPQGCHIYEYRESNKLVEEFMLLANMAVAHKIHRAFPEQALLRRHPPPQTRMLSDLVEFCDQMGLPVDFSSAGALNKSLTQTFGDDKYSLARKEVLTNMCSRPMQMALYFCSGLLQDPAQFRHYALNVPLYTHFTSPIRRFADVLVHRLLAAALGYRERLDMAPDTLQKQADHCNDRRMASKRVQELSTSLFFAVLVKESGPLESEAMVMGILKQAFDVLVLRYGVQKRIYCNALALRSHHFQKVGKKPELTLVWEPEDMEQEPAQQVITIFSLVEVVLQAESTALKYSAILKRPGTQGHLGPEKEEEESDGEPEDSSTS
UniProt Q15398: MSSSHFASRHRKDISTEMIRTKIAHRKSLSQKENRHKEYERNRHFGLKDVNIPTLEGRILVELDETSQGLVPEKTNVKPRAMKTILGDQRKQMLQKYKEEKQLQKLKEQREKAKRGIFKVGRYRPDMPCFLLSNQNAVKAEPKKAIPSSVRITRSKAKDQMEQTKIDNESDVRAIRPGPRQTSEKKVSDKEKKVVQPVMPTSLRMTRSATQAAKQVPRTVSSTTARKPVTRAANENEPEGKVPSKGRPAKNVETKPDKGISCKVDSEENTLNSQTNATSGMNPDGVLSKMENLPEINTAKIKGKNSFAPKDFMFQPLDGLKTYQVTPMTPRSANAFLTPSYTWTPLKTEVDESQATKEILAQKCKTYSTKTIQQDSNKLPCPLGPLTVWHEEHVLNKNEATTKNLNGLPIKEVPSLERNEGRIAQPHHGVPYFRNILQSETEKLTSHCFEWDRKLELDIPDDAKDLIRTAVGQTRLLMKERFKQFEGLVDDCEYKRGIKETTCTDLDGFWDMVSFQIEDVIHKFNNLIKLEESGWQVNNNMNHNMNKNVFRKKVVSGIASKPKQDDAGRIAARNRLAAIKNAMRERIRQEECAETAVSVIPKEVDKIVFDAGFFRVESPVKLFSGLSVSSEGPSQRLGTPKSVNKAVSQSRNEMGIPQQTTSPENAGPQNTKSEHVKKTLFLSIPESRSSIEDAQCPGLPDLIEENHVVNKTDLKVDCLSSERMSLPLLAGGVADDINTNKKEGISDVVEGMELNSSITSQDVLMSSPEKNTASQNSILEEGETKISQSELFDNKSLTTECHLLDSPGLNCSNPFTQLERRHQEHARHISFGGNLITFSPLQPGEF
UniProt P0CG22: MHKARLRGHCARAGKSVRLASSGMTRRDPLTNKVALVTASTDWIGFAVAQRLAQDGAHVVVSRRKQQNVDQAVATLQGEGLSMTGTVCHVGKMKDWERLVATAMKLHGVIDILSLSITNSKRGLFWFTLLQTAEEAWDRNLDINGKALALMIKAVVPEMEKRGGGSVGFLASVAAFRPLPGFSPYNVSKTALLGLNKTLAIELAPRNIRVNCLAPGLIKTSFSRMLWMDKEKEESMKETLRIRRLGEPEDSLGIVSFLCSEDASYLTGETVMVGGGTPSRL
UniProt Q9Y315: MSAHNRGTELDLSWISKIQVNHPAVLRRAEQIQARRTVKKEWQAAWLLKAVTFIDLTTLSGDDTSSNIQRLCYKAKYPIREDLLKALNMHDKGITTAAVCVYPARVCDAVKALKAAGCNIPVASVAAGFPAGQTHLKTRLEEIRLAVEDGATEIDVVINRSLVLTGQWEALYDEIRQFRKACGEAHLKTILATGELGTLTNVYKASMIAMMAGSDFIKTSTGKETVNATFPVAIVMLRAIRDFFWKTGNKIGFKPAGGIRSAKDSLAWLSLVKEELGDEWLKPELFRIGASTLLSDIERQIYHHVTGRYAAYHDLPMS
UniProt P36957: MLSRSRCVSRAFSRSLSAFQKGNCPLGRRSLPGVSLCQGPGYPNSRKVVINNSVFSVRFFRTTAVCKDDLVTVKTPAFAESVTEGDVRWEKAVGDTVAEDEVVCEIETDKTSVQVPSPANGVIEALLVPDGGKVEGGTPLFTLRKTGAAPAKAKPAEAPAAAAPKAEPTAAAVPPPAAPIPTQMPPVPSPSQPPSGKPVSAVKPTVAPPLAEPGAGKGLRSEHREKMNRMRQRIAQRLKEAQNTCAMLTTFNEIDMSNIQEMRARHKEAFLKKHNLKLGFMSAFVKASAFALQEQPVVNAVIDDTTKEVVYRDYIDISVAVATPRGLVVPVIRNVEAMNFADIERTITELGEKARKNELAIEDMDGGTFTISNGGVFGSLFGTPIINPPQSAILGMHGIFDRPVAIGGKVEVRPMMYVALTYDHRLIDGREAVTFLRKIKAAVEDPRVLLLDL
UniProt Q15700, whole entry, looked up: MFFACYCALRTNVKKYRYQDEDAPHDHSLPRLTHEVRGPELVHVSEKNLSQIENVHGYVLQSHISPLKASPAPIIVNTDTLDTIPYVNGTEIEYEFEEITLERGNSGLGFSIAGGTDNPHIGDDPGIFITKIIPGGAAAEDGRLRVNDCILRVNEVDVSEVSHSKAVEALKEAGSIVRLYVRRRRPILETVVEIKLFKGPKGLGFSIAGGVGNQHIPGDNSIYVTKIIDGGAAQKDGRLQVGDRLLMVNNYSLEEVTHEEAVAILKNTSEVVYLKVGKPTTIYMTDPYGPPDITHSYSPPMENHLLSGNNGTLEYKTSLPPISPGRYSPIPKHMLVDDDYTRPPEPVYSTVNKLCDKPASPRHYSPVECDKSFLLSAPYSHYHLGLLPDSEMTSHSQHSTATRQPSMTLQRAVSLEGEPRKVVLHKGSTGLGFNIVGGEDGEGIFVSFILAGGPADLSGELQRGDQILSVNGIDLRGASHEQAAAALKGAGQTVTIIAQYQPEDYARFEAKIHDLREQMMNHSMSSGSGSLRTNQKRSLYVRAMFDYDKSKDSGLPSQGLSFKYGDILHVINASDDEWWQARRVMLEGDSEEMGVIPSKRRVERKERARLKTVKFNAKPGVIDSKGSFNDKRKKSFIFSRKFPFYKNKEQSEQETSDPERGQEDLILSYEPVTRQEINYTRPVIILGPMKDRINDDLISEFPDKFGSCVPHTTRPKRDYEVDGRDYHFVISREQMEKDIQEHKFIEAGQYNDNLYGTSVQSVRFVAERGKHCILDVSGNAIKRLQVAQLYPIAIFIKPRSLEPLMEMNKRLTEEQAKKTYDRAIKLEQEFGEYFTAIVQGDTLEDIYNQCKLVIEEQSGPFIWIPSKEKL
UniProt Q99766: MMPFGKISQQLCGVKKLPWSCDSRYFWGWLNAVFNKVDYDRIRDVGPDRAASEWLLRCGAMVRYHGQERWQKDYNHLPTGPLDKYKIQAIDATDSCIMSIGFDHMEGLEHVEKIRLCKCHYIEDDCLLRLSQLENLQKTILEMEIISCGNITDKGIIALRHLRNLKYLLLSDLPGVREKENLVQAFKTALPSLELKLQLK
UniProt Q13268: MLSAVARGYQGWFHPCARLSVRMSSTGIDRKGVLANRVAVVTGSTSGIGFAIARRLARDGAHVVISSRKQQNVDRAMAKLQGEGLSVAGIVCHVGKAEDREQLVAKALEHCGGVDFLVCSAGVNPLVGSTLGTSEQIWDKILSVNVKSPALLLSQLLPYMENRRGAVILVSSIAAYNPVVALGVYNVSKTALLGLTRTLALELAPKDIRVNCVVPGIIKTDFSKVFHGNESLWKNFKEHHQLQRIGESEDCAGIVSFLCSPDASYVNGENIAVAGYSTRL
UniProt Q08495: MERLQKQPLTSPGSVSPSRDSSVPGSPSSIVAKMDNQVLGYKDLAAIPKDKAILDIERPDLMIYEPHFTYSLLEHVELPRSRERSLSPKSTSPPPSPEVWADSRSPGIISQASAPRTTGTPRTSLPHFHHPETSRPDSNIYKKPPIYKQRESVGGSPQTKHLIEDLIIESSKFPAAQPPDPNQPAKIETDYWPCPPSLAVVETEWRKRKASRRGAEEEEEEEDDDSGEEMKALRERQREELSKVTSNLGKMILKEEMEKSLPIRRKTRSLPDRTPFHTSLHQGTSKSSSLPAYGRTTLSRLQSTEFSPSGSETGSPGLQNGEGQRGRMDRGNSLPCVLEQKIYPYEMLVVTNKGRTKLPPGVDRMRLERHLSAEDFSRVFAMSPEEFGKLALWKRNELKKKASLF
UniProt Q5T1V6: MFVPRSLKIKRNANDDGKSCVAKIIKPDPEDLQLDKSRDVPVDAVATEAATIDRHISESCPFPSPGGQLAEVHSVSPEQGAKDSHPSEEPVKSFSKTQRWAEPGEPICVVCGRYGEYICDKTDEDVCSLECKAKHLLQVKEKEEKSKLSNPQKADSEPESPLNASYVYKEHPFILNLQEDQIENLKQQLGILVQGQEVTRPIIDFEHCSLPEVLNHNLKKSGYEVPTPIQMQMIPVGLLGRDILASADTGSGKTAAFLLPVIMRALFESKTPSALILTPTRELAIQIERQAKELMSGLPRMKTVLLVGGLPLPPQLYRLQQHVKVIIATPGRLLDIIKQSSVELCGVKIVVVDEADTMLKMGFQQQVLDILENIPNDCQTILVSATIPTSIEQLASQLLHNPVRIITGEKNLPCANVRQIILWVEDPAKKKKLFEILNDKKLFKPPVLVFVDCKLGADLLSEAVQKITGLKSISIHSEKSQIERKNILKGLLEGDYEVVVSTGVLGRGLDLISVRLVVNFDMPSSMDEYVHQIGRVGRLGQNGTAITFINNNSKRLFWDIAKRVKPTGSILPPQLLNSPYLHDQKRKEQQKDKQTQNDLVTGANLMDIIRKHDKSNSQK

Tests used:
Assay in all cases: log2 fold change, soluble protein after heating vs DMSO (PISA); higher = thermal stabilisation; K562 cells, 10 uM, 30 min; active = over 0.2 and 3.5 SD of the protein, either way, in both replicates (recomputed)
[1] = compound: CC1=C(C=C(C=C1)NC(=O)C2=CC(=CC=C2)C(C)(C)C#N)NC3=CC4=C(C=C3)N=CN(C4=O)C
In short: (§1)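 K562 cells at 2×10^6 cells/mL were treated with 10 μM compound for 30 min. Aliquots were heated for 3 min across 48°C-58°C, pooled, and extracted in PBS with 0.5% NP-40 at 4°C; soluble protein was the supernatant after 21,000xg for 90 min. Soluble protein was quantified by TMTpro 16plex LC-MS/MS with channel sums equalised, and reported as log2 fold change in thermal stability against DMSO controls, with values from duplicates.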

[2] = compound: CC1=C(C=C(C=C1)NC(=O)C2=CC(=CC=C2)N(C)C)NC(=O)C3=CC=C(C=C3)O
In short: as §1

[3] = compound: CC1=CC=C(C=C1)SC2=C3C=C(SC3=CN=C2)C(=O)N
In short: as §1

[4] = compound: CC1=NC(=CC=C1)C2=C(N=C(N2)C(C)(C)C)C3=CC4=NC=CN=C4C=C3
In short: as §1

[5] = compound: CCCCN(Cc1ccc(C(=O)NO)cc1)C(=O)Nc1ccccc1 [Nexturastat A]
In short: as §1

[6] = compound: CCCS(=O)(=O)Nc1ccc(F)c(C(=O)c2c[nH]c3ncc(-c4ccc(Cl)cc4)cc23)c1F [vemurafenib]
In short: as §1

[7] = compound: CCCS(=O)(=O)Nc1ccc(F)c(C(=O)c2c[nH]c3ncc(Cl)cc23)c1F
In short: as §1

[8] = compound: CCCc1cc(C)[nH]c(=O)c1CNC(=O)c1cc(-c2ccnc(N3CCN(C)CC3)c2)cc2c1cnn2C(C)C
In short: as §1

[9] = compound: CCN(CC)Cc1ccc2cc(COC(=O)Nc3ccc(C(=O)NO)cc3)ccc2c1 [givinostat]
In short: as §1

[10] = compound: CCN(CCCOc1ccc2c(Nc3cc(CC(=O)Nc4cccc(F)c4)[nH]n3)ncnc2c1)CCOP(=O)(O)O [barasertib]
In short: as §1

[11] = compound: CC[C@@H]1C(=O)N(C)c2cnc(Nc3ccc(C(=O)NC4CCN(C)CC4)cc3OC)nc2N1C1CCCC1
In short: as §1

[12] = compound: CC[C@@H]1C(=O)N(C)c2cnc(Nc3ccc(C(=O)N[C@H]4CC[C@H](N5CCN(CC6CC6)CC5)CC4)cc3OC)nc2N1C(C)C [volasertib]
In short: as §1

[13] = compound: CC[C@H](C)N1C=C(C2=C(C=C(C=C21)C3=CN=C(C=C3)N4CCNCC4)C(=O)NCC5=C(C=C(NC5=O)C)C)C
In short: as §1

[14] = compound: CC[C@H](C)[C@@H](C(=O)N[C@@H]([C@@H](C)O)C(=O)N[C@@H](CC(C)C)C(=O)[C@]1(CO1)C)NC(=O)[C@H]([C@@H](C)CC)N(C)C(=O)C [epoxomicin]
In short: as §1

[15] = compound: CCn1c(C(=O)N(C2CC2)C2CC2)cc2c3c(ncn3C)c(Nc3cc(C)n(C)n3)nc21
In short: as §1

[16] = compound: CCn1cc(-c2ccnc3[nH]c(-c4cccc(CN(C)C)c4)cc23)c(-c2ccc(NC(=O)N(C)C)cc2)n1
In short: as §1

[17] = compound: CN(C)CC(=O)Nc1ccc2[nH]c(=O)c3ccccc3c2c1
In short: as §1

[18] = compound: CN(CCOC1=CC=C(C=C1)C[C@H]2C(=O)NC(=O)S2)C3=CC=CC=N3 (racemic) [rosiglitazone]
In short: as §1

[19] = compound: CN1C2=C(C3=C1C(=O)N(N=C3)CC4=CC(=CC=C4)N)SC(=C2)S(=O)C
In short: as §1

[20] = compound: CN1CCC(CNc2ccc3ncc(-c4cccc(OC(F)(F)F)c4)n3n2)CC1
In short: as §1

Measured: log2 fold change

DLG1 isoform 2 (UniProt Q12959)
inactive: [1] -0.026 | [2] -0.055 | [3] -0.003 | [4] 0.006 | [5] -0.006 | [6] 0.004 | [7] 0.073 | [8] 0.124 | [9] 0.025 | [10] -0.01 | [11] -0.187 | [12] -0.125 | [13] 0.04 | [14] 0.036 | [15] -0.042 | [16] 0.061 | [17] -0.005 | [18] 0.005 | [19] 0.025 | [20] 0.038

DHRS7 (UniProt Q9Y394)
inactive: [1] 0.105 | [2] 0.008 | [3] -0.006 | [4] -0.029 | [5] 0.008 | [6] 0.018 | [7] -0.02 | [8] -0.013 | [9] -0.029 | [10] -0.019 | [11] 0.021 | [12] 0.088 | [13] -0.042 | [14] 0.032 | [15] 0.034 | [16] 0 | [17] 0.033 | [18] 0.006 | [19] -0.021 | [20] 0.118

DIS3L2 (UniProt Q8IYB7)
inactive: [1] -0.04 | [2] 0.019 | [3] -0.004 | [4] -0.052 | [5] 0.076 | [6] 0.017 | [7] -0.062 | [8] 0 | [9] -0.004 | [10] 0 | [11] 0.003 | [12] -0.05 | [13] 0.026 | [14] -0.032 | [15] 0.021 | [16] -0.038 | [17] -0.029 | [18] 0.263 | [19] 0.002 | [20] -0.014

DLGAP5 (UniProt Q15398)
inactive: [1] 0.035 | [2] -0.033 | [3] -0.018 | [4] -0.058 | [5] 0.074 | [6] 0.041 | [7] 0.04 | [8] -0.031 | [9] 0.04 | [10] 0.063 | [11] -0.082 | [12] -0.222 | [13] 0.064 | [14] -0.019 | [15] -0.076 | [16] -0.015 | [17] 0.062 | [18] 0.037 | [19] 0.004 | [20] -0.06

DHRS4L1 (UniProt P0CG22)
inactive: [1] -0.007 | [2] -0.021 | [3] 0.017 | [4] 0.052 | [5] -0.076 | [6] -0.049 | [7] -0.025 | [8] -0.03 | [9] -0.016 | [10] -0.036 | [11] 0.08 | [12] 0.076 | [13] -0.057 | [14] -0.011 | [15] 0.106 | [16] 0.038 | [17] -0.034 | [18] 0.024 | [19] -0.027 | [20] 0.047

DERA (UniProt Q9Y315)
inactive: [1] -0.04 | [2] 0 | [3] -0.001 | [4] -0.018 | [5] -0.003 | [6] -0.033 | [7] 0.03 | [8] 0.11 | [9] -0.006 | [10] 0.024 | [11] 0.058 | [12] 0.083 | [13] -0.051 | [14] 0.028 | [15] 0.014 | [16] 0.008 | [17] -0.004 | [18] -0.037 | [19] -0.035 | [20] -0.024

DLST (UniProt P36957)
inactive: [1] -0.013 | [2] 0.011 | [3] -0.027 | [4] -0.001 | [5] 0.04 | [6] -0.046 | [7] -0.052 | [8] 0.031 | [9] -0.041 | [10] -0.052 | [11] 0.042 | [12] 0.177 | [13] -0.061 | [14] 0.003 | [15] 0 | [16] 0.026 | [17] -0.046 | [18] -0.053 | [19] 0.074 | [20] 0.012

Reprinted from the listing (4 entries):
DHRS7 (UniProt Q9Y394)
inactive: [1] 0.105 | [2] 0.008 | [3] -0.006 | [4] -0.029 | [5] 0.008 | [6] 0.018 | [7] -0.02 | [8] -0.013 | [9] -0.029 | [10] -0.019 | [11] 0.021 | [12] 0.088 | [13] -0.042 | [14] 0.032 | [15] 0.034 | [16] 0 | [17] 0.033 | [18] 0.006 | [19] -0.021 | [20] 0.118

DIS3L2 (UniProt Q8IYB7)
inactive: [1] -0.04 | [2] 0.019 | [3] -0.004 | [4] -0.052 | [5] 0.076 | [6] 0.017 | [7] -0.062 | [8] 0 | [9] -0.004 | [10] 0 | [11] 0.003 | [12] -0.05 | [13] 0.026 | [14] -0.032 | [15] 0.021 | [16] -0.038 | [17] -0.029 | [18] 0.263 | [19] 0.002 | [20] -0.014

DLGAP5 (UniProt Q15398)
inactive: [1] 0.035 | [2] -0.033 | [3] -0.018 | [4] -0.058 | [5] 0.074 | [6] 0.041 | [7] 0.04 | [8] -0.031 | [9] 0.04 | [10] 0.063 | [11] -0.082 | [12] -0.222 | [13] 0.064 | [14] -0.019 | [15] -0.076 | [16] -0.015 | [17] 0.062 | [18] 0.037 | [19] 0.004 | [20] -0.06

DHRS4L1 (UniProt P0CG22)
inactive: [1] -0.007 | [2] -0.021 | [3] 0.017 | [4] 0.052 | [5] -0.076 | [6] -0.049 | [7] -0.025 | [8] -0.03 | [9] -0.016 | [10] -0.036 | [11] 0.08 | [12] 0.076 | [13] -0.057 | [14] -0.011 | [15] 0.106 | [16] 0.038 | [17] -0.034 | [18] 0.024 | [19] -0.027 | [20] 0.047

(next part)

DHX8 (UniProt Q14562)
inactive: [1] -0.051 | [2] -0.063 | [3] -0.091 | [4] -0.045 | [5] -0.141 | [6] -0.2 | [7] -0.191 | [8] -0.083 | [9] -0.003 | [10] -0.013 | [11] 0.01 | [12] -0.003 | [13] -0.079 | [14] -0.033 | [15] -0.03 | [16] 0.078 | [17] -0.07 | [18] 0.058 | [19] 0.004 | [20] -0.212

DLG2 isoform 2 (UniProt Q15700)
inactive: [1] 0.033 | [2] -0.013 | [3] 0.043 | [4] 0.022 | [5] 0.011 | [6] 0.022 | [7] 0.042 | [8] 0.329 | [9] 0.048 | [10] 0.118 | [11] 0.055 | [12] -0.106 | [13] 0.004 | [14] 0.033 | [15] 0.059 | [16] -0.015 | [17] -0.001 | [18] 0.233 | [19] 0.05 | [20] -0.165

DNAH9 (UniProt Q9NYC9)
inactive: [1] -0.013 | [2] 0.019 | [3] 0.001 | [4] 0.067 | [5] -0.076 | [6] -0.014 | [7] 0.019 | [8] 0.016 | [9] -0.018 | [10] 0 | [11] 0.037 | [12] 0.029 | [13] -0.042 | [14] 0.01 | [15] 0.057 | [16] -0.007 | [17] -0.039 | [18] 0.02 | [19] -0.075 | [20] -0.033

DHRS11 (UniProt Q6UWP2)
inactive: [1] 0.003 | [2] -0.002 | [3] -0.026 | [4] 0.022 | [5] -0.044 | [6] 0.016 | [7] 0.021 | [8] -0.023 | [9] 0.035 | [10] -0.016 | [11] 0.021 | [12] 0.056 | [13] 0.004 | [14] 0.003 | [15] -0.019 | [16] -0.061 | [17] 0.025 | [18] 0.037 | [19] -0.109 | [20] -0.016

DMAC2L (UniProt Q99766)
inactive: [1] -0.082 | [2] 0.029 | [3] -0.031 | [4] 0.005 | [5] 0.01 | [6] -0.046 | [7] -0.013 | [8] -0.017 | [9] 0 | [10] 0.013 | [11] 0.025 | [12] 0.008 | [13] -0.003 | [14] -0.012 | [15] -0.039 | [16] -0.017 | [17] 0.013 | [18] -0.007 | [19] -0.02 | [20] 0.252

DHRS2 (UniProt Q13268)
inactive: [1] -0.031 | [2] -0.069 | [3] -0.037 | [4] -0.027 | [5] -0.088 | [6] 0.009 | [7] -0.029 | [8] -0.01 | [9] -0.088 | [10] 0.022 | [11] 0.127 | [12] 0.019 | [13] 0.039 | [14] -0.031 | [15] -0.008 | [16] -0.033 | [17] -0.008 | [18] -0.06 | [19] -0.047 | [20] -0.039

DMTN (UniProt Q08495)
inactive: [1] -0.04 | [2] 0.018 | [3] 0.023 | [4] -0.008 | [5] -0.021 | [6] 0.02 | [7] 0.006 | [8] -0.005 | [9] -0.003 | [10] 0.009 | [11] -0.058 | [12] -0.046 | [13] -0.01 | [14] 0.016 | [15] 0.004 | [16] -0.063 | [17] 0.013 | [18] 0.014 | [19] -0.022 | [20] -0.036

DDX59 (UniProt Q5T1V6)
inactive: [1] -0.03 | [2] 0.004 | [3] 0.044 | [4] -0.039 | [5] -0.092 | [6] 0.02 | [7] 0.068 | [8] 0.02 | [9] 0.059 | [10] -0.069 | [11] -0.125 | [12] -0.046 | [13] 0.029 | [14] 0.104 | [15] -0.019 | [16] -0.065 | [17] 0.023 | [18] 0 | [19] -0.049 | [20] 0.014

DDHD2 (UniProt O94830)
inactive: [1] -0.058 | [2] 0.037 | [3] 0.029 | [4] 0.027 | [5] -0.018 | [6] -0.02 | [7] 0 | [8] -0.032 | [9] -0.029 | [10] 0.017 | [11] -0.051 | [12] 0.01 | [13] -0.009 | [14] 0.045 | [15] -0.017 | [16] -0.077 | [17] 0.029 | [18] -0.036 | [19] -0.033 | [20] -0.129
